Source: the supplement of paper PMC12819154, “High-throughput peptide-centric local stability assay extends protein–ligand identification to membrane proteins, tissues and bacteria” (Nature Structural & Molecular Biology, 2025)
The list shows a part of the results. Most values lie at the level of the controls, where differences are scatter.

Chains of the proteins cited; added tags and fusions are not shown. Lines headed by an entry give the natural chain unless they say otherwise; changes in a name come on top.
UniProt Q9D2V7: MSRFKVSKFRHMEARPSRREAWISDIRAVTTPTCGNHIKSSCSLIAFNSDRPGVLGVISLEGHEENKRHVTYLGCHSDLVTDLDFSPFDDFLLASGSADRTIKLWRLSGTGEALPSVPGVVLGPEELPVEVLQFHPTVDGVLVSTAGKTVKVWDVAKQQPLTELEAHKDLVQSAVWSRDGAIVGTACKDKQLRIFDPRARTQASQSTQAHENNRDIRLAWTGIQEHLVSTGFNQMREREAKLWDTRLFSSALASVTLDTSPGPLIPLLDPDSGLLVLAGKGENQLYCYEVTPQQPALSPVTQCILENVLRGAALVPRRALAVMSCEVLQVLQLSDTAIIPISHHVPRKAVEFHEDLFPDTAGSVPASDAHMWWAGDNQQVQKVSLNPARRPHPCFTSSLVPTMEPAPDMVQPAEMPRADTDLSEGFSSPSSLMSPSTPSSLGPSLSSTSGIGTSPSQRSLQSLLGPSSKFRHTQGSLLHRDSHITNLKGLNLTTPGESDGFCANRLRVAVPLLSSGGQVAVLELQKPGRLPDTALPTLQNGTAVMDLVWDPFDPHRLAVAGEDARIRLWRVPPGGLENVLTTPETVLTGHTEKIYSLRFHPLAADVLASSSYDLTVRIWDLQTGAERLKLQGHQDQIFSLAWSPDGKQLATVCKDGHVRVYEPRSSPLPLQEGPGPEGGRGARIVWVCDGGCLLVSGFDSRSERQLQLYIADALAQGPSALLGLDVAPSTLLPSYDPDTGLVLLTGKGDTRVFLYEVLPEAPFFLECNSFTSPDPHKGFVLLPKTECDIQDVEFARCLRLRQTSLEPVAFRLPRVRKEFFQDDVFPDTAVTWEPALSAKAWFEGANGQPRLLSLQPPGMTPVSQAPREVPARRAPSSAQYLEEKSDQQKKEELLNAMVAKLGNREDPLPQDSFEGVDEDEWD
UniProt Q9D832: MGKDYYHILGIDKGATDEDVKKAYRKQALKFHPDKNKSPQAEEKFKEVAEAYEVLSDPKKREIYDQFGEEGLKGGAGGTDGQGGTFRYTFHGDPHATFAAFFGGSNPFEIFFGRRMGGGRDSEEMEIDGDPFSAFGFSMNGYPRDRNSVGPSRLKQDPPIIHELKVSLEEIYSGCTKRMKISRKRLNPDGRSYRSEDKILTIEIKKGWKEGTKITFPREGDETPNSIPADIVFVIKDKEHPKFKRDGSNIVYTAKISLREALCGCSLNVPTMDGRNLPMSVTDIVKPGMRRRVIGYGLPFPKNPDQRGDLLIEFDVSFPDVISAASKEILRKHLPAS
UniProt Q9D898, whole entry: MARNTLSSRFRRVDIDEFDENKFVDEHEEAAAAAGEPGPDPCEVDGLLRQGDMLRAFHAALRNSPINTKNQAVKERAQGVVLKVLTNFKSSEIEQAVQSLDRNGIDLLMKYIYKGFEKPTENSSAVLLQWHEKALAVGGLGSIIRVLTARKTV
UniProt Q9D4K7: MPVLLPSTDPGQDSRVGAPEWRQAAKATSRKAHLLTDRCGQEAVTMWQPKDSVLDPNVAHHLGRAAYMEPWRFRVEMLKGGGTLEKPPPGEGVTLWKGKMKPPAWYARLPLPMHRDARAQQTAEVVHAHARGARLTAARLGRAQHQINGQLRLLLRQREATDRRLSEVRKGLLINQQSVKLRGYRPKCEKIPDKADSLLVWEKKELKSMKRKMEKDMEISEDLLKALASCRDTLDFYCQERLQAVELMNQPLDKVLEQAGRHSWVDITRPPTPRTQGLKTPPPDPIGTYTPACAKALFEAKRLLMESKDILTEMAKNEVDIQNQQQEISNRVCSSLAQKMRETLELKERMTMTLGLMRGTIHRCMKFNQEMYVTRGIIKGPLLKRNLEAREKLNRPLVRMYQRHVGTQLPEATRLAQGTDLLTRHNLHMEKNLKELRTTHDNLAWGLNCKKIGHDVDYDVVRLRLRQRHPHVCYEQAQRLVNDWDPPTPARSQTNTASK
UniProt Q9D6T1: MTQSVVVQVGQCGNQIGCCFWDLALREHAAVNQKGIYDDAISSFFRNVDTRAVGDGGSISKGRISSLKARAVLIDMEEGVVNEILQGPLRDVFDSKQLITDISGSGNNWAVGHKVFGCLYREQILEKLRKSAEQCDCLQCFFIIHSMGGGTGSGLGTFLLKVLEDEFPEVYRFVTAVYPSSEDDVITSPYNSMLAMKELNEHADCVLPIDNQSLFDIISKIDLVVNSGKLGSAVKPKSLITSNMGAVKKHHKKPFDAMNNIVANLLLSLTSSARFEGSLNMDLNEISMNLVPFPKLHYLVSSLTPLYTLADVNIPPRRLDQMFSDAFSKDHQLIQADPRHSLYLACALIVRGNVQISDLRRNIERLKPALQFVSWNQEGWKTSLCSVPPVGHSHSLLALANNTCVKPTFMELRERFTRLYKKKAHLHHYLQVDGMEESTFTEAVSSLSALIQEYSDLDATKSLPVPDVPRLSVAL
UniProt Q9DAI2: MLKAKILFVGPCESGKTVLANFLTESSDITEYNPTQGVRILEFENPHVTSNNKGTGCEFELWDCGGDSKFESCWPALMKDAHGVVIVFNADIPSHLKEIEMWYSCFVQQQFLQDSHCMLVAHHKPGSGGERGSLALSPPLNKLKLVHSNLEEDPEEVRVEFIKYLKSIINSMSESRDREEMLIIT
UniProt Q9D1A0: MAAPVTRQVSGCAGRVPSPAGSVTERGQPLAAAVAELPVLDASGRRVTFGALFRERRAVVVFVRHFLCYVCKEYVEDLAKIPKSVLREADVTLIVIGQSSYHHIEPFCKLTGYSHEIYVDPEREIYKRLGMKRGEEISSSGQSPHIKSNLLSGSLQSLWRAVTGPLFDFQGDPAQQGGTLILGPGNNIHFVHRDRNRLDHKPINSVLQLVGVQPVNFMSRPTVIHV
UniProt Q9D9K3: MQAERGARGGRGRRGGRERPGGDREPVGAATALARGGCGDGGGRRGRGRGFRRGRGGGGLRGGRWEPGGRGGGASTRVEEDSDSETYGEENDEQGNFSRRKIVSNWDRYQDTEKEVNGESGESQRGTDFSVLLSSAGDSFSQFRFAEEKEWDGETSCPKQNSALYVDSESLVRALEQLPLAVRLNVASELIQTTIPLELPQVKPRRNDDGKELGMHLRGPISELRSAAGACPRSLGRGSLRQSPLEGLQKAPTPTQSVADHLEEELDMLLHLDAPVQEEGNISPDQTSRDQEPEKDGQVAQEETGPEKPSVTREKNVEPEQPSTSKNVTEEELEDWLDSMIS
UniProt Q9D9V3: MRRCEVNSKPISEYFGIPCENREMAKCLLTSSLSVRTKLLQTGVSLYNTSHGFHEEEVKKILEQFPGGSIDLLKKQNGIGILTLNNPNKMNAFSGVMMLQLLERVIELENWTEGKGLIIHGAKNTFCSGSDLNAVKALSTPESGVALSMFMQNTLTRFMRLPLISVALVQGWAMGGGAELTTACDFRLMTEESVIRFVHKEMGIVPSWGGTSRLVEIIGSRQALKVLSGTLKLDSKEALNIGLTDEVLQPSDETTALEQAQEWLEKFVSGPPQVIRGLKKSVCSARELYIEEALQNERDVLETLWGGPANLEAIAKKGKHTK
UniProt Q9D6Y9: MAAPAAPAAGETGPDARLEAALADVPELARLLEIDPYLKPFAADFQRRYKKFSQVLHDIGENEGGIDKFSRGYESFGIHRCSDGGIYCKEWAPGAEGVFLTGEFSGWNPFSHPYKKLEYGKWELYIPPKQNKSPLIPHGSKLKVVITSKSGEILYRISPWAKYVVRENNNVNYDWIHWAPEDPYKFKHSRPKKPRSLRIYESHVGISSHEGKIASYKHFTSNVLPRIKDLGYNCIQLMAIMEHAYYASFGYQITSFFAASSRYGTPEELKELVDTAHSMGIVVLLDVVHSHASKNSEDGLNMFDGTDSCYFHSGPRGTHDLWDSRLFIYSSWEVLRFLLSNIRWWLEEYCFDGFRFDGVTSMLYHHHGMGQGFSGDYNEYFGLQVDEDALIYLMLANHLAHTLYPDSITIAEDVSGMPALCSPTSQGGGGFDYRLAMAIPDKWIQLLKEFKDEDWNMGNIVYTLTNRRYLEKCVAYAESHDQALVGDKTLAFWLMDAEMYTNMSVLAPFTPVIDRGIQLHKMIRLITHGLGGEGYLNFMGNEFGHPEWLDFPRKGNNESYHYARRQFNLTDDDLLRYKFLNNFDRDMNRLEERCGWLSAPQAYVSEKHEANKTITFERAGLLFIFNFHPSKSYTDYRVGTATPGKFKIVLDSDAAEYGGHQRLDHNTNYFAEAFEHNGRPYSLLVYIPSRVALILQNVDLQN
UniProt Q9D3U0: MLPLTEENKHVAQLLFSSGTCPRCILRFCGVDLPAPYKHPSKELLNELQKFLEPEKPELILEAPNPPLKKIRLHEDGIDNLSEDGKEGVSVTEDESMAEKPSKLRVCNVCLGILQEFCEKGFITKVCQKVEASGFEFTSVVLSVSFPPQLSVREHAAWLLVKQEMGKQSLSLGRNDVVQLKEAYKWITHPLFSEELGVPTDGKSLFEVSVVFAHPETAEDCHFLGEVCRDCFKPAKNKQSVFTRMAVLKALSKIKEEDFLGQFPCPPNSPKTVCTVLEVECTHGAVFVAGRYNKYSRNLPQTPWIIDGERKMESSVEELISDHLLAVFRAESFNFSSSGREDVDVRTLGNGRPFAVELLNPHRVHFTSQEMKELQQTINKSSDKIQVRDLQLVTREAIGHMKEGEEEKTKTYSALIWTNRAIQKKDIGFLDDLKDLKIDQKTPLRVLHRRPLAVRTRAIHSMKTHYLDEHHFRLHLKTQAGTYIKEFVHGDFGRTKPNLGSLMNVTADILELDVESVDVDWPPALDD
UniProt Q9D8T7: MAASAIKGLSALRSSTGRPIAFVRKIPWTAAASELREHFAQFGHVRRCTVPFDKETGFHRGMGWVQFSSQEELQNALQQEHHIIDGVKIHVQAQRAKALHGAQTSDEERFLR

Compound: CN[C@@H]1C[C@H]2O[C@@](C)([C@@H]1OC)n1c3ccccc3c3c4c(c5c6ccccc6n2c5c31)C(=O)NC4 [staurosporine]
Assay: log2 fold change of tryptic peptide abundance, ligand vs vehicle (limited proteolysis) (log2 ratio); higher = more trypsin-susceptible (destabilized)
Conditions: ligand concentration: 20 uM; sample: mouse liver crude lysate; replicate design: treated separately

Target	log2 fold change
UniProt Q9D2V7 (peptide sequence: DSHITNLK, peptide start residue: 481)	-0.325
UniProt Q9D832 (peptide sequence: EGDETPNSIPADIVFVIKDKEHPK, peptide start residue: 219)	0.155
UniProt Q9D898 (peptide sequence: ALAVGGLGSIIR, peptide start residue: 134)	-0.128
UniProt Q9D4K7 (peptide sequence: GGGTLEK, peptide start residue: 80)	0.0493
UniProt Q9D6T1 (peptide sequence: SLITSNMGAVK, peptide start residue: 238)	-0.0878
UniProt Q9DAI2 (peptide sequence: GSLALSPPLNK, peptide start residue: 132)	0.187
UniProt Q9D1A0 (peptide sequence: EYVEDLAK, peptide start residue: 73)	0.253
UniProt Q9D9K3 (peptide sequence: NDDGKELGMHLR, peptide start residue: 207)	-0.591
UniProt Q9D9V3 (peptide sequence: LVEIIGSR, peptide start residue: 214)	-0.647
UniProt Q9D6Y9 (peptide sequence: CGWLSAPQAYVSEKHEANK, peptide start residue: 594)	-0.687
UniProt Q9D3U0 (peptide sequence: THYLDEHHFR, peptide start residue: 464)	0.207
UniProt Q9D8T7 (peptide sequence: KIPWTAAASELR, peptide start residue: 25)	0.165

For convenience, some entries already given.
Target	log2 fold change
UniProt Q9D1A0 (peptide sequence: EYVEDLAK, peptide start residue: 73)	0.253
UniProt Q9D9K3 (peptide sequence: NDDGKELGMHLR, peptide start residue: 207)	-0.591
